PubChem BioAssay AID1159595 – NIAID | 2016
Shown is one part, drawn at random, of 756 reagents tested. Over the whole deposit, 115 (15%) got an active call. 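Active calls cover both lowered and raised reporter signal; each score refers to one siRNA rather than a whole gene.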 Reagents against one gene are numbered here. The record does not give: the amount of reagent.

- Aim: 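Which toll-like receptor pathway genes macrophages need for Pam3CSK4-induced Tnf promoter activity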 (primary screen)
- System: mouse RAW264.7 macrophage reporter cells
- Knock-down reagent: single siRNA against mouse genes
- Duration: assayed 48 to 72 hours after siRNA transfection; ligand applied for 16 hours
- Treatment: Pam3CSK4 (TLR2 ligand) for 16 hours before fixation; dose not given
- Measurement: 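Nuclear mCherry from a Tnf promoter reporter imaged after 16 h Pam3CSK4, 48–72 h post-transfection; background subtracted, plate median/MAD normalised, robust z-scores averaged over replicates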
- Reading the numbers: Tnf reporter z-score (replicate mean): higher = stronger Tnf promoter reporter signal than negative control wells
- Call rule: 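Calls apply to single siRNAs, not genes: activity graded at absolute z of 1, 1.5, 2 and 2.5, and active means averaged z at or beyond ±1.5, i.e. activity score 50 or above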
- Meaning of the calls: active = strong change (up or down); inactive = little change

| target | reagent no. | Tnf reporter z-score (replicate mean) | outcome |
| --- | --- | --- | --- |
| Ikbke | 1 | -1.73 | active |
| Ikbke | 2 | -1.28 | inactive |
| Ikbke | 3 | -0.701 | inactive |
| Ikbke | 4 | -0.331 | inactive |
| Ikbke | 5 | -0.498 | inactive |
| Ikbke | 6 | -0.608 | inactive |
| Ifnb1 | 1 | 1.02 | inactive |
| Ifnb1 | 2 | -0.803 | inactive |
| Ifnb1 | 3 | -1.21 | inactive |
| Ifnb1 | 4 | 1.27 | inactive |
| Ifnb1 | 5 | -0.951 | inactive |
| Ifnb1 | 6 | -1.1 | inactive |
| Atf7 | 1 | -1.18 | inactive |
| Atf7 | 2 | -0.425 | inactive |
| Atf7 | 3 | -0.718 | inactive |
| Atf7 | 4 | 0.525 | inactive |
| Atf7 | 5 | -1.59 | active |
| Atf7 | 6 | -0.965 | inactive |
| Mapk11 | 1 | 0.648 | inactive |
| Mapk11 | 2 | -0.295 | inactive |
| Mapk11 | 3 | 0.0255 | inactive |
| Mapk11 | 4 | -0.335 | inactive |
| Mapk11 | 5 | -1.18 | inactive |
| Mapk11 | 6 | 0.164 | inactive |
| Ticam1 | 1 | 0.283 | inactive |
| Ticam1 | 2 | 1.27 | inactive |
| Ticam1 | 3 | 0.159 | inactive |
| Ticam1 | 4 | -0.858 | inactive |
| Ticam1 | 5 | 0.126 | inactive |
| Ticam1 | 6 | -1.64 | active |
| Tbkbp1 | 1 | -0.321 | inactive |
| Tbkbp1 | 2 | -0.846 | inactive |
| Tbkbp1 | 3 | 0.968 | inactive |
| Tbkbp1 | 4 | 0.375 | inactive |
| Tbkbp1 | 5 | 0.889 | inactive |
| Tbkbp1 | 6 | -0.0936 | inactive |
| Elk1 | 1 | -1.33 | inactive |
| Elk1 | 2 | 0.984 | inactive |
| Elk1 | 3 | -0.0338 | inactive |
| Elk1 | 4 | -3.67 | active |
| Elk1 | 5 | -2.19 | active |
| Elk1 | 6 | -2 | active |
| Btk | 1 | -0.00431 | inactive |
| Btk | 2 | -1.64 | active |
| Btk | 3 | -0.762 | inactive |
| Btk | 4 | -0.596 | inactive |
| Btk | 5 | -0.645 | inactive |
| Btk | 6 | 0.144 | inactive |

12 entries from above, arranged by “Tnf reporter z-score (replicate mean)”, high to low:
| target | reagent no. | Tnf reporter z-score (replicate mean) | outcome |
| --- | --- | --- | --- |
| Ticam1 | 2 | 1.27 | inactive |
| Tbkbp1 | 3 | 0.968 | inactive |
| Tbkbp1 | 5 | 0.889 | inactive |
| Tbkbp1 | 4 | 0.375 | inactive |
| Ticam1 | 3 | 0.159 | inactive |
| Ticam1 | 5 | 0.126 | inactive |
| Tbkbp1 | 6 | -0.0936 | inactive |
| Tbkbp1 | 1 | -0.321 | inactive |
| Tbkbp1 | 2 | -0.846 | inactive |
| Ticam1 | 4 | -0.858 | inactive |
| Elk1 | 1 | -1.33 | inactive |
| Ticam1 | 6 | -1.64 | active |

More entries follow:
| target | reagent no. | Tnf reporter z-score (replicate mean) | outcome |
| --- | --- | --- | --- |
| Nfkb2 | 1 | -0.815 | inactive |
| Nfkb2 | 2 | -0.713 | inactive |
| Nfkb2 | 3 | -0.909 | inactive |
| Nfkb2 | 4 | -0.0189 | inactive |
| Nfkb2 | 5 | 0.0624 | inactive |
| Nfkb2 | 6 | -1.98 | active |
| Mapk3 | 1 | -1.69 | active |
| Mapk3 | 2 | 1.52 | active |
| Mapk3 | 3 | -0.68 | inactive |
| Mapk3 | 4 | -0.242 | inactive |
| Mapk3 | 5 | -1.25 | inactive |
| Mapk3 | 6 | 0.8 | inactive |
| Cd14 | 1 | -1.95 | active |
| Cd14 | 2 | -1.86 | active |
| Cd14 | 3 | -1.79 | active |
| Cd14 | 4 | -1.21 | inactive |
| Cd14 | 5 | -1.39 | inactive |
| Cd14 | 6 | 0.836 | inactive |
| Tradd | 1 | 2.45 | active |
| Tradd | 2 | -0.652 | inactive |
| Tradd | 3 | 0.195 | inactive |
| Tradd | 4 | 0.749 | inactive |
| Tradd | 5 | -0.309 | inactive |
| Tradd | 6 | -0.0431 | inactive |
| Ptpn6 | 1 | 0.753 | inactive |
| Ptpn6 | 2 | 0.24 | inactive |
| Ptpn6 | 3 | -0.606 | inactive |
| Ptpn6 | 4 | -0.737 | inactive |
| Ptpn6 | 5 | -1.11 | inactive |
| Ptpn6 | 6 | -3.6 | active |
